Test system: human CD45+ cells (granulocytes-based progenitor cells)
Experiment: Colony forming test on granulocytes-based myelopoiesis progenitor cells, human CD45+ bone marrow cells of humanized Tg-NOG mouse
Format: cell-based
Conditions: for Ratio mouse/human (IC50): IC50 mCD45+ / IC50 hCD45+; for Ratio mouse/human (IC90): IC90 mCD45+ / IC90 hCD45+
From the text: The mouse at week 14 after the transplantation of the hCD34^+ cells derived from the human cord blood was euthanized by removing the blood from the abdominal aorta under anesthesia of isoflurane. Then, the femur was collected. The femur was sterilely washed using the Iscove's Modified Dulbecco's Medium (IMDM, available from Life Technologies) to prepare a suspension of cells. The suspension of cells was passed through a nylon filter (pore size of 35 μm, Cell Strainer, available from BD Biosciences) to obtain a filtrate as a solution of the bone marrow cells. A portion of the solution of the bone marrow cells was subjected to FACS analysis to calculate a ratio between the human-derived leucocytes (hCD45^+) and the mouse-derived leucocytes (mCD45^+).
The human 45^+ cells were suspended in a methyl cellulose medium (MethoCult H4534, available from Stem cell technologies) so as to be 5×10^4 cells/1.1 mL/dish. Then, EHC was added at 0.14 nM, 0.4 nM, 1.2 nM, 3.7 nM, 11 nM, or 33 nM. Meanwhile, PTX was added at 0.12 nM, 0.4 nM, 1.1 nM, 3.3 nM, 10 nM, 30 nM, or 90 nM. The resultant was seeded in a dish and was cultured for 16 days at 37° C. under 5% CO2.
As the vehicle control, dimethyl sulfoxide (DMSO, final concentration of 0.002 v/v %) was used. For each concentration, two dishes were used.
After a period of the cultivation was completed, the number of the colonies derived from the granulocytes formed was counted and an average number of the colonies in each concentration was calculated. An average number of the colonies in the vehicle control was considered as 100%. The average number of the colonies in each concentration was considered as a relative value (IC50 and IC90). Here, the IC50 means a concentration at which formation of 50% of the colonies is inhibited and the IC90 means a concentration at which formation of 90% of the colonies is inhibited.
The collection, preparation, and cultivation of the bone marrow cells and the calculation of the percentage of inhibition of colony formation were performed in the same manner as in Example 3-1.
The human CD45^+ cells were exposed to nogitecan at an exposure concentration of 0.41 nM, 1.2 nM, 3.7 nM, 11.1 nM, 33.3 nM, or 100 nM. Meanwhile, the other human CD45^+ cells were exposed to oxaliplatin at an exposure concentration of 123 nM, 370 nM, 1,111 nM, 3,333 nM, 10,000 nM, or 30,000 nM.
A physiological saline solution was used for the vehicle control of nogitecan and a distilled water was used for the vehicle control of oxaliplatin.
An average number of the colonies in the vehicle control was considered as 100%. The average number of the colonies in each concentration was considered as a relative value (IC50 and IC90). Here, the IC50 means a concentration at which formation of 50% of the colonies is inhibited and the IC90 means a concentration at which formation of 90% of the colonies is inhibited.

## CCc1c2c(nc3ccc(O)cc13)-c1cc3c(c(=O)n1C2)COC(=O)[C@]3(O)CC [EHC, 7-Ethyl-10-hydroxycamptothecin]
  Ratio mouse/human (IC50): 9.3
  Ratio mouse/human (IC90): 9.5

## CC[C@@]1(O)C(=O)OCc2c1cc1n(c2=O)Cc2cc3c(CN(C)C)c(O)ccc3nc2-1 [Nogitecan, nogitecan]
  Ratio mouse/human (IC50): 16.3
  Ratio mouse/human (IC90): 12.5

## O=C1[O][Pt]2([NH][C@@H]3CCCC[C@H]3[NH]2)[O]C1=O [Oxaliplatin, oxaliplatin]
  Ratio mouse/human (IC50): 0.16
  Ratio mouse/human (IC90): 0.18

## CC(=O)O[C@H]1C(=O)[C@@]2(C)[C@H]([C@H](OC(=O)c3ccccc3)[C@]3(O)C[C@H](OC(=O)[C@H](O)[C@@H](NC(=O)c4ccccc4)c4ccccc4)C(C)=C1C3(C)C)[C@]1(OC(C)=O)CO[C@@H]1C[C@@H]2O [PTX, paclitaxel]
  Ratio mouse/human (IC50): 0.8
  Ratio mouse/human (IC90): 1.0

From patent US20180289840A1, “Method for Evaluating Hematological Toxicity of Drug Under Evaluation, and Model for Evaluating Hematological Toxicity of Drug Under Evaluation” (Central Institute for Experimental Animals, priority 2015, published 2018)
